According to the supplement of paper PMC10849652:
The other results are listed elsewhere or left out.

By UniProt entry, the sequences of proteins in these tests, tags left out. Where a name states a change or a piece, a line headed by the entry shows the natural chain unless it says otherwise.
UniProt Q9BQC3: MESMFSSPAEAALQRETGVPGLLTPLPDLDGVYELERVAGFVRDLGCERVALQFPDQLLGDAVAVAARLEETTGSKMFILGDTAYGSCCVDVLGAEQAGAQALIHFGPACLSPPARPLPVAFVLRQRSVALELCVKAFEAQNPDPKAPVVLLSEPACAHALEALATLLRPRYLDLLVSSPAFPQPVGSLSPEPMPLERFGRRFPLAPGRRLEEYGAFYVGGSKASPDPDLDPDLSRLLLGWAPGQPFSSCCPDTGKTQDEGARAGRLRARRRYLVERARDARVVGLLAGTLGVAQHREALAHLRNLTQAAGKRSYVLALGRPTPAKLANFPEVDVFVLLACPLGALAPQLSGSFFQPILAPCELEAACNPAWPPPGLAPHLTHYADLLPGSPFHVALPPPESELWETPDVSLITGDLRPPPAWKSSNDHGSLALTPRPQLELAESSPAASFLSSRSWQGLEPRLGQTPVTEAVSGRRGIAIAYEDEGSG
UniProt Q7Z388: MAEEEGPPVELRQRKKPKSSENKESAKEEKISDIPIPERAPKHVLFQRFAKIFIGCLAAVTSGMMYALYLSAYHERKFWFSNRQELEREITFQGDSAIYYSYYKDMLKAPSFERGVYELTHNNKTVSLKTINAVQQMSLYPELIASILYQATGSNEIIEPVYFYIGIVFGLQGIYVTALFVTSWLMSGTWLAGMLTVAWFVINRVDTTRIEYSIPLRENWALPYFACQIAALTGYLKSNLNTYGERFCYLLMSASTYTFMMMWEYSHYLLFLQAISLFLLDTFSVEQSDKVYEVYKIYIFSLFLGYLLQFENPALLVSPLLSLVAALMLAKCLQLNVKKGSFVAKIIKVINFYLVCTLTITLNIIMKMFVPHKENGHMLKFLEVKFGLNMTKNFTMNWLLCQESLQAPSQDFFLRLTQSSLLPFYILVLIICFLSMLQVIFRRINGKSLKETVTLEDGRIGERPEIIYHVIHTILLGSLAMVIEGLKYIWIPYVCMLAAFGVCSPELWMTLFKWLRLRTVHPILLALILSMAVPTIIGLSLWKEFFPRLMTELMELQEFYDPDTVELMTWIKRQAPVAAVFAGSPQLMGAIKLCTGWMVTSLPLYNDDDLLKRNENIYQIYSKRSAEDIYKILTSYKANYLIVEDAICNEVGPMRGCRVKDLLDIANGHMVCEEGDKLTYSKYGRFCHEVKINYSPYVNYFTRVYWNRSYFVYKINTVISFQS
UniProt O75937: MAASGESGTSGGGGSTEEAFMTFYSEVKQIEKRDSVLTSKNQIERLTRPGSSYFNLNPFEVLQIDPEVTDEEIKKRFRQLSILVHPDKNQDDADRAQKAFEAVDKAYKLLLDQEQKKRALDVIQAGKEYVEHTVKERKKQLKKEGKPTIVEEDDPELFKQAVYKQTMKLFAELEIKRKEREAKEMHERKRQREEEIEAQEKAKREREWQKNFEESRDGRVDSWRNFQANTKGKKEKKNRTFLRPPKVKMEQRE
UniProt Q02487, whole entry, looked up: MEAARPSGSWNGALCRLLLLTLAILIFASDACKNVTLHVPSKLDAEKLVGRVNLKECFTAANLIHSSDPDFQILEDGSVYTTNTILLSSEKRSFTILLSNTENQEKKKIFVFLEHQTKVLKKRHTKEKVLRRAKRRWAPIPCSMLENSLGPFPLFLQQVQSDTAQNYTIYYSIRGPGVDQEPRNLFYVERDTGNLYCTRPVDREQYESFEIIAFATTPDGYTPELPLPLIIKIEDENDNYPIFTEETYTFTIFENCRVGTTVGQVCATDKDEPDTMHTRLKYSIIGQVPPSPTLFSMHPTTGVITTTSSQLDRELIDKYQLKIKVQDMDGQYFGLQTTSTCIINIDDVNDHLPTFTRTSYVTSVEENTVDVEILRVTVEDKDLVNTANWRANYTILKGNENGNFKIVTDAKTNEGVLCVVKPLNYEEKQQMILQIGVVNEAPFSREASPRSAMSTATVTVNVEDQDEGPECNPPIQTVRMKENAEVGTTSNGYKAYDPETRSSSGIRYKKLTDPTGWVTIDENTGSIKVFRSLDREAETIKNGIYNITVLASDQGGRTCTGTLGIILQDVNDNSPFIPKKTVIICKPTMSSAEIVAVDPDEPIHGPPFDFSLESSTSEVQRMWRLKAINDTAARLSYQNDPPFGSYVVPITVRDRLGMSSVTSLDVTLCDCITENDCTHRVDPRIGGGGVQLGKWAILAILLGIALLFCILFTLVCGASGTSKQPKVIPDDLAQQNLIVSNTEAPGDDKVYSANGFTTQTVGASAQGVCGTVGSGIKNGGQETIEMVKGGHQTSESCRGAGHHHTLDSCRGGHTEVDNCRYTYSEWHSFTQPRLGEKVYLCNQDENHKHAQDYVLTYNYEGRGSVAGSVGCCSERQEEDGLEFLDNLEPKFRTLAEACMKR
UniProt Q96EY1: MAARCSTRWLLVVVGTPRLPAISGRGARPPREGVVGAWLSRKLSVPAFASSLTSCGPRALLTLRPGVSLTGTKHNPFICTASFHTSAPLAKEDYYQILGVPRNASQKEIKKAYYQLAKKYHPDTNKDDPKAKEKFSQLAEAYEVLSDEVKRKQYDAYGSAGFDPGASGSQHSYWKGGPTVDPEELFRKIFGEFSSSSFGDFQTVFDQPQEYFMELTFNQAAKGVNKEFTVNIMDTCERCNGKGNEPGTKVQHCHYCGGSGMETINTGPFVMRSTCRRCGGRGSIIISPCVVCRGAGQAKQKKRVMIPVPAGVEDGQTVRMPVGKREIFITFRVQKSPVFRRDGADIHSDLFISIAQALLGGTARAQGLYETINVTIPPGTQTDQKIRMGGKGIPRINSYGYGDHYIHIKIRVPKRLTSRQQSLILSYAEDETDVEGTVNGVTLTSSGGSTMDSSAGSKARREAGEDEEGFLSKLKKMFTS
UniProt Q5F1R6: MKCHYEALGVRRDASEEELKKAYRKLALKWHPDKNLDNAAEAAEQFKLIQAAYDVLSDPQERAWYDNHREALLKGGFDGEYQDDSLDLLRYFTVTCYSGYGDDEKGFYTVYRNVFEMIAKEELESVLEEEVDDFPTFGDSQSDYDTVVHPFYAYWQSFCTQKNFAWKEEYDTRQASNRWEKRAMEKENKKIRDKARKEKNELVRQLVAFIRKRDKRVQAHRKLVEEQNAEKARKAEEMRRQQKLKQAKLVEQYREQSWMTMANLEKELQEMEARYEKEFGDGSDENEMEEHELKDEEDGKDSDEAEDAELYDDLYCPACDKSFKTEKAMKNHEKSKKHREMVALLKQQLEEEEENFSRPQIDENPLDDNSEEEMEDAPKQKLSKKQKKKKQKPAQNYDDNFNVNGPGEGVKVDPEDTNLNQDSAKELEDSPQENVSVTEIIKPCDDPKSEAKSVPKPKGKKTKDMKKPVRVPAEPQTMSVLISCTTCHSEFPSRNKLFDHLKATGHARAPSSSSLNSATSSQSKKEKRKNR
UniProt Q9UBS4: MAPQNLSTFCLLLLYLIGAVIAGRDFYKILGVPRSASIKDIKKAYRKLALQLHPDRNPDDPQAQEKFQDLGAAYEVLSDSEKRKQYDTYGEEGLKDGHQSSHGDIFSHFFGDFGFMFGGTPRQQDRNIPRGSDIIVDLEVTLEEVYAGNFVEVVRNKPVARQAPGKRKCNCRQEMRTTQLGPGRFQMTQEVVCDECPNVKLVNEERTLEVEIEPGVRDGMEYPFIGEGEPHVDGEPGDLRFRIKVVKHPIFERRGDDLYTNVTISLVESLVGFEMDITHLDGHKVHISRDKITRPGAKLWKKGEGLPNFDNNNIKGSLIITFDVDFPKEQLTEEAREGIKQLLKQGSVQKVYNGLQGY
UniProt Q9NP97, whole entry, looked up: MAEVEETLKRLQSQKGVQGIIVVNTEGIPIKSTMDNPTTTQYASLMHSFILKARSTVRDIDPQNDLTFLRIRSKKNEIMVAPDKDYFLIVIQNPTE
UniProt Q9NY33: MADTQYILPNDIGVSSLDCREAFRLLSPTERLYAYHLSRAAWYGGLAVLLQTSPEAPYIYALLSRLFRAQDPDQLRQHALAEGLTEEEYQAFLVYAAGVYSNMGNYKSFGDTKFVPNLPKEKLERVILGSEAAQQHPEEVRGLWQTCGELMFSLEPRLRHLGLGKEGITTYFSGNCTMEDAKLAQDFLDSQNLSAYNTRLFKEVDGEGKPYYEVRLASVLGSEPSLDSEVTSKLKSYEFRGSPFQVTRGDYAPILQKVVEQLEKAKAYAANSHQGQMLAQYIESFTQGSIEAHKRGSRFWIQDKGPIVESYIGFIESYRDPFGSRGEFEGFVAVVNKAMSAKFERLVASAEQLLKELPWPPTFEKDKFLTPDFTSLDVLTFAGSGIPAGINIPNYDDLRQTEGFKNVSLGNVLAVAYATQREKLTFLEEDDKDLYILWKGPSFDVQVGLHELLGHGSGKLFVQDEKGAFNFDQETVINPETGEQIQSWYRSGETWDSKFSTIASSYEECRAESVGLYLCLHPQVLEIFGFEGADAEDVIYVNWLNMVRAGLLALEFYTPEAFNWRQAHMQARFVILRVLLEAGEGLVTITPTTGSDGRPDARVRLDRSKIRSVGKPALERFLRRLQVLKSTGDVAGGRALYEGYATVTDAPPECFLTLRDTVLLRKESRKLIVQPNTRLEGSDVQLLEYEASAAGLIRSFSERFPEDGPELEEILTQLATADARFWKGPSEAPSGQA
UniProt P33316: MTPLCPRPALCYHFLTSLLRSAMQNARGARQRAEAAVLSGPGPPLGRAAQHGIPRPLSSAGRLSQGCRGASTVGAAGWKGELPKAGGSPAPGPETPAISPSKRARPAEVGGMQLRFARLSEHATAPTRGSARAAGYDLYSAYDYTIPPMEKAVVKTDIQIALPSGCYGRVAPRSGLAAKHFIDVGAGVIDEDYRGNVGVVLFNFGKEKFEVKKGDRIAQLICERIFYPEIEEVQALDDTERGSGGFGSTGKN
UniProt Q7L8W6: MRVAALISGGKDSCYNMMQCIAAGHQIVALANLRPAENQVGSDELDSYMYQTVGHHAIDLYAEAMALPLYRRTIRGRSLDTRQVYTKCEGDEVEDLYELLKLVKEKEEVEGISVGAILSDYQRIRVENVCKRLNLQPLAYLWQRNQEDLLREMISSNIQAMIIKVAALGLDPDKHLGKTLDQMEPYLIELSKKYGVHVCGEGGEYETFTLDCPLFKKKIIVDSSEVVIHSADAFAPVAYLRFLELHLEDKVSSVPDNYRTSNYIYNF
UniProt Q8IXB1: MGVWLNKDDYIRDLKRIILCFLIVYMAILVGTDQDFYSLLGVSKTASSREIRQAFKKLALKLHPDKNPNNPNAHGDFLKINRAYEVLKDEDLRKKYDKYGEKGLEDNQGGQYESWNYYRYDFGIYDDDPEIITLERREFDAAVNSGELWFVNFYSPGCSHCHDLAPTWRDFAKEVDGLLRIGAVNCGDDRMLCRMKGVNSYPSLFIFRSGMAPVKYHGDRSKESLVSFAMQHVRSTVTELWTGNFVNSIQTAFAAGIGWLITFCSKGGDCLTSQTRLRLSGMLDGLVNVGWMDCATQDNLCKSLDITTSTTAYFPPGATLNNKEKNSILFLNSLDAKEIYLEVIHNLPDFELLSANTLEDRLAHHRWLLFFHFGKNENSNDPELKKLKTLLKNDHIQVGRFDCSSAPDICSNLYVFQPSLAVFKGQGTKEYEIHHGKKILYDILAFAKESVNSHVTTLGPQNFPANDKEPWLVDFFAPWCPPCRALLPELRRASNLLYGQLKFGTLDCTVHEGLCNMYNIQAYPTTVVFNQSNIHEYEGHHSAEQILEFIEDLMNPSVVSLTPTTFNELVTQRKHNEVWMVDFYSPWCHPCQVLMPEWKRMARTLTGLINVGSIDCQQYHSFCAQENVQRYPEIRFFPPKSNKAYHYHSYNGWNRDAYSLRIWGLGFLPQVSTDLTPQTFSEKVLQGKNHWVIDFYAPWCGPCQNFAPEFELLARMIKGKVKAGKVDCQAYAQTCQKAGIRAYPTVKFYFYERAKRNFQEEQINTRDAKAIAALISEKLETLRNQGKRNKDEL
UniProt P63167, whole entry, looked up: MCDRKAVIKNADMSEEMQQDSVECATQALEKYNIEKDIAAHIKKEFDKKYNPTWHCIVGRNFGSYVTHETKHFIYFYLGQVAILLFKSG
UniProt Q9NVH1: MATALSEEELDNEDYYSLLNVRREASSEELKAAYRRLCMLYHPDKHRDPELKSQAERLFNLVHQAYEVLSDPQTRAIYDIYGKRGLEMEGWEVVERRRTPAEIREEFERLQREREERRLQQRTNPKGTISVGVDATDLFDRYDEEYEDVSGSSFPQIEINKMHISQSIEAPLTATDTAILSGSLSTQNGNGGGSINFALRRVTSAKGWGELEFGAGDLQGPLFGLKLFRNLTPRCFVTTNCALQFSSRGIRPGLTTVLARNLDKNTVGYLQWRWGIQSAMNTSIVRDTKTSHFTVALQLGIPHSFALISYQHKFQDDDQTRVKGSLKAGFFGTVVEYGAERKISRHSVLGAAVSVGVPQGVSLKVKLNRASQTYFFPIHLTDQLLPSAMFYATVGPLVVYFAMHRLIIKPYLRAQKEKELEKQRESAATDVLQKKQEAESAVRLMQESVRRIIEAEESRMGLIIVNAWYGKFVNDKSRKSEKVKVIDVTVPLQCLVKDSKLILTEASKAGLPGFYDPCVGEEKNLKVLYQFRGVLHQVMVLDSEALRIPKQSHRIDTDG

Compound: CC[C@@H]1C(=O)N(C)c2cnc(Nc3ccc(C(=O)N[C@H]4CC[C@H](N5CCN(CC6CC6)CC5)CC4)cc3OC)nc2N1C(C)C [volasertib]
Assay: log2 fold change, soluble protein after heating vs DMSO (PISA); higher = thermal stabilisation; K562 cells, 10 uM, 30 min; active = over 0.2 and 3.5 SD of the protein, either way, in both replicates (recomputed)
Summary of the method: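 K562 cells at 2×10^6 cells/mL were treated with 10 μM compound for 30 min. Aliquots were heated for 3 min across 48°C-58°C, pooled, and extracted in PBS with 0.5% NP-40 at 4°C; soluble protein was the supernatant after 21,000xg for 90 min. Soluble protein was quantified by TMTpro 16plex LC-MS/MS with channel sums equalised, and reported as log2 fold change in thermal stability against DMSO controls, with values from duplicates.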

Row | Target | log2 fold change
1 | DPH2 (UniProt Q9BQC3) | inactive: -0.033
2 | DPY19L4 (UniProt Q7Z388) | inactive: 0.052
3 | DNAJC8 (UniProt O75937) | inactive: -0.158
4 | ECSIT (UniProt Q9BQ95) | inactive: 0.042
5 | EDARADD (UniProt Q8WWZ3) | inactive: 0.103
6 | DSTN (UniProt P60981) | inactive: 0.025
7 | ECI2 (UniProt O75521) | inactive: -0.039
8 | DSC2 (UniProt Q02487) | inactive: -0.077
9 | DNAJA3 (UniProt Q96EY1) | inactive: -0.101
10 | DNAJC21 isoform 3 (UniProt Q5F1R6) | inactive: -0.127
11 | DYNC1LI1 (UniProt Q9Y6G9) | inactive: 0.048
12 | DNM1L isoform 6 (UniProt O00429) | inactive: -0.08
13 | ECHS1 (UniProt P30084) | inactive: -0.06
14 | DNAJB11 (UniProt Q9UBS4) | inactive: 0.011
15 | EDEM1 (UniProt Q92611) | inactive: -0.076
16 | DYNLRB1 (UniProt Q9NP97) | inactive: 0.056
17 | DOCK11 (UniProt Q5JSL3) | inactive: -0.104

Row | Target | log2 fold change
18 | DUSP23 (UniProt Q9BVJ7) | inactive: -0.024
19 | ECM1 isoform 4 (UniProt Q16610) | inactive: 0.052
20 | DPP3 (UniProt Q9NY33) | inactive: -0.013
21 | DPP9 isoform 2 (UniProt Q86TI2) | inactive: 0.034
22 | DNAJC12 (UniProt Q9UKB3) | inactive: -0.075
23 | DUSP3 (UniProt P51452) | inactive: -0.141
24 | DUT (UniProt P33316) | inactive: 0.073
25 | DPH6 (UniProt Q7L8W6) | inactive: -0.191
26 | DYNLL2 (UniProt Q96FJ2) | inactive: -0.048
27 | DNAJC10 (UniProt Q8IXB1) | inactive: 0.004
28 | DYNLL1 (UniProt P63167) | inactive: -0.032
29 | DNAJC6 isoform 2 (UniProt O75061) | inactive: -0.118
30 | EDEM3 (UniProt Q9BZQ6) | inactive: -0.042
31 | DUS4L (UniProt O95620) | inactive: 0.089
32 | DNAJC11 (UniProt Q9NVH1) | inactive: -0.099
33 | DNAJC17 (UniProt Q9NVM6) | inactive: 0.041

Quoted from the listing.
In log2 fold change, DNAJC12 (UniProt Q9UKB3) reads inactive: -0.075
In log2 fold change, DYNLL2 (UniProt Q96FJ2) reads inactive: -0.048
